In US5795718, “Detection of complementary nucleotide sequences” (Boehringer Mannheim Corporation):
Negatives hold for the conditions tested. Where a protein sequence is shown, tags need not be part of it.

Target: T1, BamHI (UniProt P23940)
T1 sequence (looked up, limits assumed): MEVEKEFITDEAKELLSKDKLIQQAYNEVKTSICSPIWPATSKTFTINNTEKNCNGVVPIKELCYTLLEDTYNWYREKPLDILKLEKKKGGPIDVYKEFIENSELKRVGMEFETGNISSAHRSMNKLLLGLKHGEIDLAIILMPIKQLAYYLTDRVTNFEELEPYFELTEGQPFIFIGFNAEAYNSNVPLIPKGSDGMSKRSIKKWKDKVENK
Assay: enzyme reaction in vitro
Settings: 5' amine linker SMCC-conjugated to ED4 peptide, no change in complementation rate, purified native protein, single-stranded DNA

Row | Sequence | activity on this sequence (single-stranded probe not cleaved, variant of ED4-BP-1/M13 mp18 hybrid) | activity on this sequence
1 | GAGGATCCCCGGGTACCGAGCTCG [ED4-BP-1] | not active | 
2 | TTTTTTTTTTTTTTTTTTTT [ED4-T20] |  | not active
